Counter-ions that a name gives are not always drawn. Some of the results follow. Hit calls seldom repeat between salt and free forms of one compound.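 In K562 cells expressing nanoluciferase-fused kinases, luminescence was recorded at 4 h intervals between 2 and 18 h, normalized as percent of control with DMSO at 100% and a positive control at 0%. A significant (2 sigma) signal drop marks a time point as decreased. The authors' rule for a hit is not shown and takes in more than the number of time points.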
What was measured:
Assay in all cases: kinase-Nluc reporter destabilization hit call (1 = scored as downregulated) (binary); higher = compound decreases kinase abundance
Settings in all cases: K562; 2-18 h
ERN1 = ERN1 (UniProt O75460)
FGFR1 = FGFR1 (UniProt P11362)
FGFR2 = FGFR2 (UniProt P21802)
FGFR3 = FGFR3 (UniProt P22607)
FGR = FGR (UniProt P09769)
FLT3 = FLT3 (UniProt P36888)
FYN = FYN (UniProt P06241)
GSK3A = GSK3A (UniProt P49840)
HER2 = HER2 (UniProt P04626)
INSRR = INSRR (UniProt P14616)

Sequences of proteins named here, by UniProt entry; tags and fusion partners are left off. A change or cut given only in a name is not applied to a line headed by its entry.
UniProt O75460: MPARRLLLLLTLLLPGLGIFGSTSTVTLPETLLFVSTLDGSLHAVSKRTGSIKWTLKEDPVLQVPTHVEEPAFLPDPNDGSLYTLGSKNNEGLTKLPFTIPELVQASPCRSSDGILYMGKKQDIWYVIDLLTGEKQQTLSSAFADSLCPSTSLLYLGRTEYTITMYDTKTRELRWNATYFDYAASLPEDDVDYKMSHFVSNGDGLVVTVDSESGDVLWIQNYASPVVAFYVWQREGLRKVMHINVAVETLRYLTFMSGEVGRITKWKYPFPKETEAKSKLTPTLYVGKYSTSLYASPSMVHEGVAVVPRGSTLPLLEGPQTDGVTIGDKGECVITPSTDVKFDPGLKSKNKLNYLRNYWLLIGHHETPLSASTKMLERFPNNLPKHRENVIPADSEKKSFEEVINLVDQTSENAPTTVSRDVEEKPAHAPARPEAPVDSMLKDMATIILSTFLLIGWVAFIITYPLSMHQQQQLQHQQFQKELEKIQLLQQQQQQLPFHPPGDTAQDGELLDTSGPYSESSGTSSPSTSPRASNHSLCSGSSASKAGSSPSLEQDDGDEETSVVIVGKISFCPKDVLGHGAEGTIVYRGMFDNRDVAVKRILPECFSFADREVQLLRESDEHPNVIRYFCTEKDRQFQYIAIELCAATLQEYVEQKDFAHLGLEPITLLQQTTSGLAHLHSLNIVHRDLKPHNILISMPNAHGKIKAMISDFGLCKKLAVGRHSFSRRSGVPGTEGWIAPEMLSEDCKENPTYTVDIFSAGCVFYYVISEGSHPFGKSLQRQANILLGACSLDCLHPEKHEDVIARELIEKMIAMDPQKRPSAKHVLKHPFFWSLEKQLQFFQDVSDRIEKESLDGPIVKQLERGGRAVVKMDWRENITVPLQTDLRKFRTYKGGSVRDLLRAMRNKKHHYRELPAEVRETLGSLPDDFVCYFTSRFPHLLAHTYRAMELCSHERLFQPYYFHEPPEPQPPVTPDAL
UniProt P11362, whole entry, looked up: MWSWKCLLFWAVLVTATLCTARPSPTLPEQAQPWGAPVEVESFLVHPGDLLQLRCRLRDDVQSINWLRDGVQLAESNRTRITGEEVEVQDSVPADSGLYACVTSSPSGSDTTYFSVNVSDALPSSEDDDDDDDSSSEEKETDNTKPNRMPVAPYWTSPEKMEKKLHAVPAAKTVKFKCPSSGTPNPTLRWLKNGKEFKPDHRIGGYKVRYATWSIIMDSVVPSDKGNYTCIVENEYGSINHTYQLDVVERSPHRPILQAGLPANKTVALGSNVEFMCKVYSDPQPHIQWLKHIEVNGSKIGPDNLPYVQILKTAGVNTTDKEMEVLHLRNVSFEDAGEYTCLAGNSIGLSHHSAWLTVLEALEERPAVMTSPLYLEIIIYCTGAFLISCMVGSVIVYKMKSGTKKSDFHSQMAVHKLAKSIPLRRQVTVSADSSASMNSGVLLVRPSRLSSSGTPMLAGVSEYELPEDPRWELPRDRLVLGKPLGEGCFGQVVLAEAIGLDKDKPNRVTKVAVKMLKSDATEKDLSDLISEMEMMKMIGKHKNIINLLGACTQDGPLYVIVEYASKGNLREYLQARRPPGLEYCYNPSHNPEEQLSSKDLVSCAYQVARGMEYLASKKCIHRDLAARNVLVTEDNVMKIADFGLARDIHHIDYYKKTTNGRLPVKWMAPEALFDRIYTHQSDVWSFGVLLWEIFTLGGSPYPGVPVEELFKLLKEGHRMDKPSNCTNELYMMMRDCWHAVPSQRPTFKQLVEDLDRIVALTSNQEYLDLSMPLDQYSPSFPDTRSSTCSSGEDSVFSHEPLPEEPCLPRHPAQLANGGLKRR
UniProt P21802, whole entry, looked up: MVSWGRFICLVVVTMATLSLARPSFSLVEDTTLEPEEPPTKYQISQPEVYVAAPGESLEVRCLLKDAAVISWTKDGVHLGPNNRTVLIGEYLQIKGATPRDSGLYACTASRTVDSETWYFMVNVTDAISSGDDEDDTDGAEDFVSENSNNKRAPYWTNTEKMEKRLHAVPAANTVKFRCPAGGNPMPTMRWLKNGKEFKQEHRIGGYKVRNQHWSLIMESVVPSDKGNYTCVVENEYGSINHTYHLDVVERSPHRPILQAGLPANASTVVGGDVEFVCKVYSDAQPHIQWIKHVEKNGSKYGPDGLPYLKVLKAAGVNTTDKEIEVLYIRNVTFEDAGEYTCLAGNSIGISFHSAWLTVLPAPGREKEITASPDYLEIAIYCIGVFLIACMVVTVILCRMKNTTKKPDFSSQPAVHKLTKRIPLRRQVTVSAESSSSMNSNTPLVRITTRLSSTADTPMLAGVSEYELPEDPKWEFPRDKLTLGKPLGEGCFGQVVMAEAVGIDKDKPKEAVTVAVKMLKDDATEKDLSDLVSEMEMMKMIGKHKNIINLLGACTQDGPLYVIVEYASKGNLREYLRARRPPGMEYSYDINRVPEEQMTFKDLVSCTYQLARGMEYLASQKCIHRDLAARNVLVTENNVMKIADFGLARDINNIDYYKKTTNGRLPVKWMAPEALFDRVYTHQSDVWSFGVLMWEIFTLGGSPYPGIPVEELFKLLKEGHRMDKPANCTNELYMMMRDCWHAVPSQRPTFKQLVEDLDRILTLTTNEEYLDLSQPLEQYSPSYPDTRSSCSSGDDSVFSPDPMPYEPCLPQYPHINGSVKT
UniProt P22607, whole entry, looked up: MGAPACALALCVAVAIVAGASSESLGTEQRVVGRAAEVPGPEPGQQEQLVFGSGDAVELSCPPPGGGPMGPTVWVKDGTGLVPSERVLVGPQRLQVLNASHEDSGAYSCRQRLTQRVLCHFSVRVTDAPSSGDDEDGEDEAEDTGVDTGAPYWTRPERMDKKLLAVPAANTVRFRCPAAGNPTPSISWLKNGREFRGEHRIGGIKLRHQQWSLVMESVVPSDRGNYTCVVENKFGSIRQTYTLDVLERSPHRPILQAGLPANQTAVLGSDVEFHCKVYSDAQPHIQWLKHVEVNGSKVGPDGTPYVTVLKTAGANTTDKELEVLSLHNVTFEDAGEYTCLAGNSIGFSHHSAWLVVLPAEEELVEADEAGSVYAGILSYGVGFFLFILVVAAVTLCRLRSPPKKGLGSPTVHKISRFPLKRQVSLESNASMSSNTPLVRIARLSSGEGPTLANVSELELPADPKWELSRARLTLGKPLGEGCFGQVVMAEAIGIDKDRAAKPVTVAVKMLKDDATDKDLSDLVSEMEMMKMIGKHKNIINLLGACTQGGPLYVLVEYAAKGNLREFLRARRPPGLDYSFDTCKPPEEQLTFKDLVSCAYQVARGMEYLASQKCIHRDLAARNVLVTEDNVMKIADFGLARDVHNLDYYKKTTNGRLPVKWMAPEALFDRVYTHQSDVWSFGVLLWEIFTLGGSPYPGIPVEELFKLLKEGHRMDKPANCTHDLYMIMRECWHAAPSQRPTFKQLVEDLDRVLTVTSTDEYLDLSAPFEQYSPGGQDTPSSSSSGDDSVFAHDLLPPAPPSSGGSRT
UniProt P36888, whole entry: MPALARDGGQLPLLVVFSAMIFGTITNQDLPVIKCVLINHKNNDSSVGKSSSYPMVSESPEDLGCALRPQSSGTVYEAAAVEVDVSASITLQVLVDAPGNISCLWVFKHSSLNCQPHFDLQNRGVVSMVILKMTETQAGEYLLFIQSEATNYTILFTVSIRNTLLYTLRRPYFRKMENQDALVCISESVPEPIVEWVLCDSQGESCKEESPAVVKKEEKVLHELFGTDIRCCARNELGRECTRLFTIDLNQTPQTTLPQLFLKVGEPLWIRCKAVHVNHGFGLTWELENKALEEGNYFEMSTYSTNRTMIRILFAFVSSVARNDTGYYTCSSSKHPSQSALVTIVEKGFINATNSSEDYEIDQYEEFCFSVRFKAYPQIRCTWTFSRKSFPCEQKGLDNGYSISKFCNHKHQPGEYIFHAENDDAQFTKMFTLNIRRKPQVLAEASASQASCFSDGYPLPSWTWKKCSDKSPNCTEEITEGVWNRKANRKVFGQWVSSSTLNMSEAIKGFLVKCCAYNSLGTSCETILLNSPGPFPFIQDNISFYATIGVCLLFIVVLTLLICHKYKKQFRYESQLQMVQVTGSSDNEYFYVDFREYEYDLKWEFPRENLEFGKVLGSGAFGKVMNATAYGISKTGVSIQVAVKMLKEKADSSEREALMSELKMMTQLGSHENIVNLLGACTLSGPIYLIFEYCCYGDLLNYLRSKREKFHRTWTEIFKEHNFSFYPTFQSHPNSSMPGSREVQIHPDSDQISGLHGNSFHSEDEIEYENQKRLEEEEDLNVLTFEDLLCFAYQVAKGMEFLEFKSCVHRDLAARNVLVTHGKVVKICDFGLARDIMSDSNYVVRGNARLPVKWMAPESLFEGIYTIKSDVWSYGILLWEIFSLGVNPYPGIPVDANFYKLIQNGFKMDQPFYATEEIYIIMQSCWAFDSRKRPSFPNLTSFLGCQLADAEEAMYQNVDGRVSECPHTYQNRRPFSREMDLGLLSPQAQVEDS
UniProt P06241, whole entry, looked up: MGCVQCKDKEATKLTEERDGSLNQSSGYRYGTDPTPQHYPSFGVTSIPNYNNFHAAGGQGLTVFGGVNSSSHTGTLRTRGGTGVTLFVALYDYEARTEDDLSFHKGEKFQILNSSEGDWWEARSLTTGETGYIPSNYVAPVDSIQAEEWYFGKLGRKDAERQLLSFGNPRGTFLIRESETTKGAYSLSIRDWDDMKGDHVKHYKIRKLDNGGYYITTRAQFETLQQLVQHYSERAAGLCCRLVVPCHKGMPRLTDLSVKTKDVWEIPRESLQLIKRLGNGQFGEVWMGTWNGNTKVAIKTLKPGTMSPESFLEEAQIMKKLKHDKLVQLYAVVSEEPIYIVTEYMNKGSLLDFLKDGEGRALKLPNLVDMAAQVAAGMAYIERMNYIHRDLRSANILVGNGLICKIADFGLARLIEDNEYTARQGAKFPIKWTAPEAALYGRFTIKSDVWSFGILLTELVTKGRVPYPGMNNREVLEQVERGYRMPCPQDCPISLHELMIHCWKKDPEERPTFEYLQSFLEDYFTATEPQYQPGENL
UniProt P14616: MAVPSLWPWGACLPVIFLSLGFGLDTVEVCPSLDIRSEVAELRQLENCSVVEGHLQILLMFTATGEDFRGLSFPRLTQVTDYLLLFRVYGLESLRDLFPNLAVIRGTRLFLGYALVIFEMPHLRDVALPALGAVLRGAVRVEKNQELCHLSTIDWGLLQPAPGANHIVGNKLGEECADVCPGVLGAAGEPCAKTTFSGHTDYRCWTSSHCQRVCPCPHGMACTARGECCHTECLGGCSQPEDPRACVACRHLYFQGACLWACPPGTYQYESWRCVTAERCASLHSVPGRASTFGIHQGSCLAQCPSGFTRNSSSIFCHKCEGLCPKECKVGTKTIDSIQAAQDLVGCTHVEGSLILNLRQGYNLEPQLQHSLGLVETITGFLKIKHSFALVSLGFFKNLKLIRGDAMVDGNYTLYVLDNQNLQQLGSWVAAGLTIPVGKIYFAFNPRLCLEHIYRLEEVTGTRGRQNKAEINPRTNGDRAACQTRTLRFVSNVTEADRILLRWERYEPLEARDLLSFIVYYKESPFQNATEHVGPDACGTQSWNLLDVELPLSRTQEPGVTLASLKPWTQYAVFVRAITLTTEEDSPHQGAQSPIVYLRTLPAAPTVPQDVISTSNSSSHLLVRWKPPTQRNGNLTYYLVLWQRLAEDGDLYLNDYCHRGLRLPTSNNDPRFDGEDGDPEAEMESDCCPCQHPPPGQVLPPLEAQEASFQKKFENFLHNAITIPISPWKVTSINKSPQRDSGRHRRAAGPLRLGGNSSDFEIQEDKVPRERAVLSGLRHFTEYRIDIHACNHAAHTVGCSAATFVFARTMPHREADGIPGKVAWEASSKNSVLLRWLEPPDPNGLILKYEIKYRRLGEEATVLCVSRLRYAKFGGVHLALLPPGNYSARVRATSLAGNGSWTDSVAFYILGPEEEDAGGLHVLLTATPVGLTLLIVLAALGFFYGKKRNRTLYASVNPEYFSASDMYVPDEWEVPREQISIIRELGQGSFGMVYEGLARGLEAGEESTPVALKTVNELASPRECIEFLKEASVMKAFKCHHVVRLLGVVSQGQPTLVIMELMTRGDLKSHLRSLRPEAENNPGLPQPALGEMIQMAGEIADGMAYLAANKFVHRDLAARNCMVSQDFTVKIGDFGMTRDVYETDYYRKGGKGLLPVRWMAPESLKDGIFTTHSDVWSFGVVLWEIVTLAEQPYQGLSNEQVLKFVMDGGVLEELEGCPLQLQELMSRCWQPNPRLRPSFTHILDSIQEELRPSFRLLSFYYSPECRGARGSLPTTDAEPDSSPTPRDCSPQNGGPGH

Measured: kinase-Nluc reporter destabilization hit call

Nc1nc2cc(-c3ccc4ncc(C(=O)N5CCOCC5)n4c3)ccc2o1 [Serabelisib] (10 µM)
inactive: ERN1 = 0 | FGFR1 = 0 | FGFR2 = 0 | FGFR3 = 0 | FGR 0 | FLT3 = 0 | FYN 0 | GSK3A 0 | HER2 = 0 | INSRR 0

O=C(c1ccc(Nc2nccc(-c3cc4ccccc4s3)n2)cc1)N1CCC(N2CCCC2)CC1 (2.5 µM)
inactive: ERN1 = 0 | FGFR1 = 0 | FGFR2 = 0 | FGFR3 = 0 | FGR 0 | FLT3 = 0 | FYN 0 | GSK3A 0 | HER2 = 0 | INSRR 0

CCCCCCCC/C=C\CCCCCCCC(=O)NCC(=O)O [N-Oleoyl glycine] (10 µM)
inactive: ERN1 = 0 | FGFR1 = 0 | FGFR2 = 0 | FGFR3 = 0 | FGR 0 | FLT3 = 0 | FYN 0 | GSK3A 0 | HER2 = 0 | INSRR 0

CC1(COc2ccc3c(c2)ncn3-c2ccc3cccc(N4CCC(N)CC4)c3n2)COC1 [Crenolanib] (2.5 µM)
inactive: ERN1 = 0 | FGFR1 = 0 | FGFR2 = 0 | FGFR3 = 0 | FGR 0 | FLT3 = 0 | FYN 0 | GSK3A 0 | HER2 = 0 | INSRR 0

NCCCCCCNS(=O)(=O)c1cccc2c(Cl)cccc12 [W-7 (hydrochloride)] (10 µM)
inactive: ERN1 = 0 | FGFR1 = 0 | FGFR2 = 0 | FGFR3 = 0 | FGR 0 | FLT3 = 0 | FYN 0 | GSK3A 0 | HER2 = 0 | INSRR 0

CCn1nc(C2CCN(C(=O)CCO)CC2)nc1-c1cnc(N)c(-c2nnc(C(C)(C)C)o2)n1 (10 µM)
inactive: ERN1 = 0 | FGFR1 = 0 | FGFR2 = 0 | FGFR3 = 0 | FGR 0 | FLT3 = 0 | FYN 0 | GSK3A 0 | HER2 = 0 | INSRR 0

Nc1cc(C(F)(F)F)c(-c2nc(N3CCOCC3)nc(N3CCOCC3)n2)cn1 [Bimiralisib] (10 µM)
inactive: ERN1 = 0 | FGFR1 = 0 | FGFR2 = 0 | FGFR3 = 0 | FGR 0 | FLT3 = 0 | FYN 0 | GSK3A 0 | HER2 = 0 | INSRR 0

O=C(CCCCCn1cc(Nc2ncc(Cl)c(Nc3ccc(Cl)cc3)n2)cn1)NO (2.5 µM)
inactive: ERN1 = 0 | FGFR1 = 0 | FGFR2 = 0 | FGFR3 = 0 | FGR 0 | FLT3 = 0 | FYN 0 | GSK3A 0 | HER2 = 0 | INSRR 0

CC(C)Oc1ccc(-c2cnc3c(-c4ccnc5ccccc45)cnn3c2)cc1 (10 µM)
inactive: ERN1 = 0 | FGFR1 = 0 | FGFR2 = 0 | FGFR3 = 0 | FGR 0 | FLT3 = 0 | FYN 0 | GSK3A 0 | HER2 = 0 | INSRR 0

O=C(O)c1ccc(-c2c[nH]c3ncc(-c4ccccc4)cc23)cc1C1CCCC1 (2.5 µM)
inactive: ERN1 = 0 | FGFR1 = 0 | FGFR2 = 0 | FGFR3 = 0 | FGR 0 | FLT3 = 0 | FYN 0 | GSK3A 0 | HER2 = 0 | INSRR 0

Oc1ccccc1C(=S)N1CCCC1 (10 µM)
inactive: ERN1 = 0 | FGFR1 = 0 | FGFR2 = 0 | FGFR3 = 0 | FGR 0 | FLT3 = 0 | FYN 0 | GSK3A 0 | HER2 = 0 | INSRR 0

C=C(F)C(=O)N1CCN(c2nc(OC[C@@H]3CCCN3C)nc3c2CCN(c2cccc4cccc(Cl)c24)C3)C[C@@H]1CC#N (2.5 µM)
inactive: ERN1 = 0 | FGFR1 = 0 | FGFR2 = 0 | FGFR3 = 0 | FGR 0 | FLT3 = 0 | FYN 0 | GSK3A 0 | HER2 = 0 | INSRR 0

CCN(C)C(=O)c1ccc2c(C(=Nc3ccc(CN4CCCCC4)cc3)c3ccccc3)c(O)[nH]c2c1 (2.5 µM)
inactive: ERN1 = 0 | FGFR1 = 0 | FGFR2 = 0 | FGFR3 = 0 | FGR 0 | FLT3 = 0 | FYN 0 | GSK3A 0 | HER2 = 0 | INSRR 0

COc1cc(N2CCC(N3CCN(C)CC3)CC2)ccc1Nc1nc2c(c(Nc3ccccc3S(=O)(=O)NC(C)C)n1)CCN2 [Conteltinib] (10 µM)
inactive: ERN1 = 0 | FGFR1 = 0 | FGFR2 = 0 | FGFR3 = 0 | FGR 0 | FLT3 = 0 | FYN 0 | GSK3A 0 | HER2 = 0 | INSRR 0

Cc1cc(Nc2cc(CN3CCOCC3)c3nc(C)c(Cc4ccc(Cl)cc4F)n3n2)n[nH]1 [Gandotinib] (2.5 µM)
inactive: ERN1 = 0 | FGFR1 = 0 | FGFR2 = 0 | FGFR3 = 0 | FGR 0 | FLT3 = 0 | FYN 0 | GSK3A 0 | HER2 = 0 | INSRR 0

O=c1[nH]ccc2cc(OC3CCNCC3)ccc12 (10 µM)
inactive: ERN1 = 0 | FGFR1 = 0 | FGFR2 = 0 | FGFR3 = 0 | FGR 0 | FLT3 = 0 | FYN 0 | GSK3A 0 | HER2 = 0 | INSRR 0

CCCCOc1ccc(CC/C=C2\SC(=O)N(CCN)C2=O)cc1 [K145 (hydrochloride)] (2.5 µM)
inactive: ERN1 = 0 | FGFR1 = 0 | FGFR2 = 0 | FGFR3 = 0 | FGR 0 | FLT3 = 0 | FYN 0 | GSK3A 0 | HER2 = 0 | INSRR 0

COc1ccc2c(c1OC)OC1c3ccc(O)cc3OCC21 (stereo not given) [Methylnissolin] (10 µM)
inactive: ERN1 = 0 | FGFR1 = 0 | FGFR2 = 0 | FGFR3 = 0 | FGR 0 | FLT3 = 0 | FYN 0 | GSK3A 0 | HER2 = 0 | INSRR 0

O=C(O)c1ccc(N2N=C(Cc3ccccc3)C(=Cc3ccc(-c4ccccc4F)o3)C2=O)cc1 (10 µM)
inactive: ERN1 = 0 | FGFR1 = 0 | FGFR2 = 0 | FGFR3 = 0 | FGR 0 | FLT3 = 0 | FYN 0 | GSK3A 0 | HER2 = 0 | INSRR 0

CC(C)c1cc(/C=C(\C#N)C(N)=O)cc(C(C)C)c1O (10 µM)
inactive: ERN1 = 0 | FGFR1 = 0 | FGFR2 = 0 | FGFR3 = 0 | FGR 0 | FLT3 = 0 | FYN 0 | GSK3A 0 | HER2 = 0 | INSRR 0

COc1ccc2c(c1)c(C1=C(c3c[nH]c4ccccc34)C(=O)NC1=O)cn2CCCN(C)C (10 µM)
inactive: ERN1 = 0 | FGFR1 = 0 | FGFR2 = 0 | FGFR3 = 0 | FGR 0 | FLT3 = 0 | FYN 0 | GSK3A 0 | HER2 = 0 | INSRR 0

Fc1c(Br)cccc1Nc1ncnc2cc3c(cc12)OCCO3 (2.5 µM)
inactive: ERN1 = 0 | FGFR1 = 0 | FGFR2 = 0 | FGFR3 = 0 | FGR 0 | FLT3 = 0 | FYN 0 | GSK3A 0 | HER2 = 0 | INSRR 0

COc1cc(-c2cc(-c3cc(OC)c(OC)c(OC)c3)cc(C(F)P(=O)(OCOC(=O)C(C)(C)C)OCOC(=O)C(C)(C)C)c2)cc(OC)c1OC (stereo not given) [Stafia-1-dipivaloyloxymethyl ester] (2.5 µM)
inactive: ERN1 = 0 | FGFR1 = 0 | FGFR2 = 0 | FGFR3 = 0 | FGR 0 | FLT3 = 0 | FYN 0 | GSK3A 0 | HER2 = 0 | INSRR 0

As a working copy, two of the compounds above:
Fc1c(Br)cccc1Nc1ncnc2cc3c(cc12)OCCO3 (2.5 µM)
inactive: ERN1 = 0 | FGFR1 = 0 | FGFR2 = 0 | FGFR3 = 0 | FGR 0 | FLT3 = 0 | FYN 0 | GSK3A 0 | HER2 = 0 | INSRR 0

COc1cc(-c2cc(-c3cc(OC)c(OC)c(OC)c3)cc(C(F)P(=O)(OCOC(=O)C(C)(C)C)OCOC(=O)C(C)(C)C)c2)cc(OC)c1OC (stereo not given) [Stafia-1-dipivaloyloxymethyl ester] (2.5 µM)
inactive: ERN1 = 0 | FGFR1 = 0 | FGFR2 = 0 | FGFR3 = 0 | FGR 0 | FLT3 = 0 | FYN 0 | GSK3A 0 | HER2 = 0 | INSRR 0

Going on with the list.

O=C(O)c1cc(O)c2c(c1)[C@@H]([C@H]1c3cc(C(=O)O)cc(O)c3C(=O)c3c(O[C@@H]4O[C@H](CO)[C@@H](O)[C@H](O)[C@H]4O)cccc31)c1cccc(O[C@@H]3O[C@H](CO)[C@@H](O)[C@H](O)[C@H]3O)c1C2=O [Sennoside B] (2.5 µM)
inactive: ERN1 = 0 | FGFR1 = 0 | FGFR2 = 0 | FGFR3 = 0 | FGR 0 | FLT3 = 0 | FYN 0 | GSK3A 0 | HER2 = 0 | INSRR 0

C=CC(=O)Nc1cccc(Oc2nc(Nc3ccc(N4CCN(C)CC4)cc3)nc3ccoc23)c1 [Poseltinib] (10 µM)
active: HER2 = 1
inactive: ERN1 = 0 | FGFR1 = 0 | FGFR2 = 0 | FGFR3 = 0 | FGR 0 | FLT3 = 0 | FYN 0 | GSK3A 0 | INSRR 0

C=CC(=O)N1CCC(Oc2cc3c(Nc4ccc(Cl)c(Cl)c4F)ncnc3cc2OC)CC1 [Poziotinib] (2.5 µM)
inactive: ERN1 = 0 | FGFR1 = 0 | FGFR2 = 0 | FGFR3 = 0 | FGR 0 | FLT3 = 0 | FYN 0 | GSK3A 0 | HER2 = 0 | INSRR 0

O=c1ccoc2cc(O)ccc12 [7-Hydroxy-4H-chromen-4-one] (10 µM)
inactive: ERN1 = 0 | FGFR1 = 0 | FGFR2 = 0 | FGFR3 = 0 | FGR 0 | FLT3 = 0 | FYN 0 | GSK3A 0 | HER2 = 0 | INSRR 0

CC(=O)Nc1nc(C)c(-c2nc(N3CCCC(O)C3)no2)s1 (stereo not given) (10 µM)
inactive: ERN1 = 0 | FGFR1 = 0 | FGFR2 = 0 | FGFR3 = 0 | FGR 0 | FLT3 = 0 | FYN 0 | GSK3A 0 | HER2 = 0 | INSRR 0

O=C1NCCCc2c1oc1ccc(O)cc21 (10 µM)
inactive: ERN1 = 0 | FGFR1 = 0 | FGFR2 = 0 | FGFR3 = 0 | FGR 0 | FLT3 = 0 | FYN 0 | GSK3A 0 | HER2 = 0 | INSRR 0
